In the supplement of paper PMC8728848:
The list shows a part of the results.

Key:
Experiment in all cases: glycan array binding signal (z-score within array); higher = stronger binding
Conditions in all cases: glycan notation: IUPAC condensed, linker removed
Gal(a1-3)Gal = molecular target: Gal(a1-3)Gal
Procedure, shortened: (§1)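 Negative Z-scores can be read as non-binding. The Z-score is calculated within each array and then averaged across arrays of one protein sequence at different concentrations or buffers and across linkers. Arrays, 3228 in all, were curated from the Consortium for Functional Glycomics database and kept only where the protein sequence was available.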

Gal(a1-3)Gal(b1-3)GlcNAc = molecular target: Gal(a1-3)Gal(b1-3)GlcNAc
Procedure, shortened: as §1

[1] = molecular target: Gal(a1-3)Gal(b1-3)GlcNAc(b1-2)Man
Procedure, shortened: as §1

[2] = molecular target: Gal(a1-3)Gal(b1-3)GlcNAc(b1-2)Man(a1-3)[Gal(a1-3)Gal(b1-3)GlcNAc(b1-2)Man(a1-6)]Man(b1-4)GlcNAc(b1-4)GlcNAc
Procedure, shortened: as §1

[3] = molecular target: Gal(a1-3)Gal(b1-3)GlcNAc(b1-3)GalNAc
Procedure, shortened: as §1

[4] = molecular target: Gal(a1-3)Gal(b1-3)GlcNAc(b1-6)GalNAc
Procedure, shortened: as §1

[5] = molecular target: Gal(a1-3)Gal(b1-3)[Fuc(a1-4)]GlcNAc(b1-2)Man(a1-3)[Gal(a1-3)Gal(b1-3)[Fuc(a1-4)]GlcNAc(b1-2)Man(a1-6)]Man(b1-4)GlcNAc(b1-4)GlcNAc
Procedure, shortened: as §1

Gal(a1-3)Gal(b1-4)Glc = molecular target: Gal(a1-3)Gal(b1-4)Glc
Procedure, shortened: as §1

Gal(a1-3)Gal(b1-4)GlcNAc = molecular target: Gal(a1-3)Gal(b1-4)GlcNAc
Procedure, shortened: as §1

[6] = molecular target: Gal(a1-3)Gal(b1-4)GlcNAc(b1-2)Man
Procedure, shortened: as §1

[7] = molecular target: Gal(a1-3)Gal(b1-4)GlcNAc(b1-2)Man(a1-3)[Gal(a1-3)Gal(b1-4)GlcNAc(b1-2)Man(a1-6)]Man(b1-4)GlcNAc(b1-4)GlcNAc
Procedure, shortened: as §1

[8] = molecular target: Gal(a1-3)Gal(b1-4)GlcNAc(b1-3)GalNAc
Procedure, shortened: as §1

[9] = molecular target: Gal(a1-3)Gal(b1-4)GlcNAc(b1-6)GalNAc
Procedure, shortened: as §1

[10] = molecular target: Gal(a1-3)Gal(b1-4)[Fuc(a1-3)]GlcNAc
Procedure, shortened: as §1

[11] = molecular target: Gal(a1-3)Gal(b1-4)[Fuc(a1-3)]GlcNAc(b1-2)Man(a1-3)[Gal(a1-3)Gal(b1-4)[Fuc(a1-3)]GlcNAc(b1-2)Man(a1-6)]Man(b1-4)GlcNAc(b1-4)GlcNAc
Procedure, shortened: as §1

Gal(a1-3)GalNAc = molecular target: Gal(a1-3)GalNAc
Procedure, shortened: as §1

[12] = molecular target: Gal(a1-3)[Gal(a1-4)]Gal(b1-4)GlcNAc
Procedure, shortened: as §1

[13] = molecular target: Gal(a1-4)Gal(b1-3)GlcNAc(b1-2)Man(a1-3)[Gal(a1-4)Gal(b1-3)GlcNAc(b1-2)Man(a1-6)]Man(b1-4)GlcNAc(b1-4)GlcNAc
Procedure, shortened: as §1

Gal(a1-4)Gal(b1-4)Glc = molecular target: Gal(a1-4)Gal(b1-4)Glc
Procedure, shortened: as §1

Gal(a1-4)Gal(b1-4)GlcNAc = molecular target: Gal(a1-4)Gal(b1-4)GlcNAc
Procedure, shortened: as §1

[14] = molecular target: Gal(a1-4)Gal(b1-4)GlcNAc(b1-2)Man(a1-3)[Gal(a1-4)Gal(b1-4)GlcNAc(b1-2)Man(a1-6)]Man(b1-4)GlcNAc(b1-4)GlcNAc
Procedure, shortened: as §1

[15] = molecular target: Gal(a1-4)Gal(b1-4)GlcNAc(b1-3)Gal(b1-4)Glc
Procedure, shortened: as §1

Gal(a1-4)GlcNAc = molecular target: Gal(a1-4)GlcNAc
Procedure, shortened: as §1

Gal(a1-6)Glc = molecular target: Gal(a1-6)Glc
Procedure, shortened: as §1

Gal(b1-2)Gal = molecular target: Gal(b1-2)Gal
Procedure, shortened: as §1

Gal(b1-3)Gal = molecular target: Gal(b1-3)Gal
Procedure, shortened: as §1

Gal(b1-3)Gal(b1-4)GlcNAc = molecular target: Gal(b1-3)Gal(b1-4)GlcNAc
Procedure, shortened: as §1

Gal(b1-3)GalNAc = molecular target: Gal(b1-3)GalNAc
Procedure, shortened: as §1

[16] = molecular target: Gal(b1-3)GalNAc(a1-3)[Fuc(a1-2)]Gal(b1-4)Glc
Procedure, shortened: as §1

[17] = molecular target: Gal(b1-3)GalNAc(a1-3)[Fuc(a1-2)]Gal(b1-4)GlcNAc
Procedure, shortened: as §1

Gal(b1-3)GalNAc(b1-3)Gal = molecular target: Gal(b1-3)GalNAc(b1-3)Gal
Procedure, shortened: as §1

[18] = molecular target: Gal(b1-3)GalNAc(b1-3)Gal(a1-4)Gal(b1-4)Glc
Procedure, shortened: as §1

[19] = molecular target: Gal(b1-3)GalNAc(b1-4)Gal(b1-4)Glc
Procedure, shortened: as §1

[20] = molecular target: Gal(b1-3)GalNAc(b1-4)[Neu5Ac(a2-3)]Gal(b1-4)Glc
Procedure, shortened: as §1

Gal(b1-3)GlcNAc = molecular target: Gal(b1-3)GlcNAc
Procedure, shortened: as §1

[21] = molecular target: Gal(b1-3)GlcNAc(a1-3)Gal(b1-4)GlcNAc
Procedure, shortened: as §1

[22] = molecular target: Gal(b1-3)GlcNAc(a1-6)Gal(b1-4)GlcNAc
Procedure, shortened: as §1

Gal(b1-3)GlcNAc(b1-2)Man = molecular target: Gal(b1-3)GlcNAc(b1-2)Man
Procedure, shortened: as §1

B1: FGF1 (Homo sapiens), P05230 (protein)
chain: MAEGEITTFTALTEKFNLPPGNYKKPKLLYSNGGHFLRILPDGTVDGTRDRSDQHIQLQLSAESVGEVYIKSTETGQYLAMTDGLLYGSQTPNEECLFLERLEENHYNTYISKHAEKNWFVGLKKNGSCKRGPRTHYGQAILFLPLPASSED
Gal(a1-3)Gal
  glycan array binding signal (z-score): -0.679
Gal(a1-3)Gal(b1-3)GlcNAc
  glycan array binding signal (z-score): -0.763
[1]
  glycan array binding signal (z-score): -0.484
[2]
  glycan array binding signal (z-score): 0.78
[3]
  glycan array binding signal (z-score): 0.646
[4]
  glycan array binding signal (z-score): -0.792
[5]
  glycan array binding signal (z-score): 3.56
Gal(a1-3)Gal(b1-4)Glc
  glycan array binding signal (z-score): -0.478
Gal(a1-3)Gal(b1-4)GlcNAc
  glycan array binding signal (z-score): -0.714
[6]
  glycan array binding signal (z-score): -0.052
[7]
  glycan array binding signal (z-score): -0.165
[8]
  glycan array binding signal (z-score): -0.582
[9]
  glycan array binding signal (z-score): -0.776
[10]
  glycan array binding signal (z-score): -0.881
[11]
  glycan array binding signal (z-score): 2.57
Gal(a1-3)GalNAc
  glycan array binding signal (z-score): -0.372
[12]
  glycan array binding signal (z-score): -0.486
[13]
  glycan array binding signal (z-score): 0.031
Gal(a1-4)Gal(b1-4)Glc
  glycan array binding signal (z-score): 0.448
Gal(a1-4)Gal(b1-4)GlcNAc
  glycan array binding signal (z-score): 0.333
[14]
  glycan array binding signal (z-score): -0.133
[15]
  glycan array binding signal (z-score): 0.423
Gal(a1-4)GlcNAc
  glycan array binding signal (z-score): 0.903
Gal(a1-6)Glc
  glycan array binding signal (z-score): -0.239
Gal(b1-2)Gal
  glycan array binding signal (z-score): 1.07
Gal(b1-3)Gal
  glycan array binding signal (z-score): 0.557
Gal(b1-3)Gal(b1-4)GlcNAc
  glycan array binding signal (z-score): 0.093
Gal(b1-3)GalNAc
  glycan array binding signal (z-score): 0.296
[16]
  glycan array binding signal (z-score): -0.327
[17]
  glycan array binding signal (z-score): -0.291
Gal(b1-3)GalNAc(b1-3)Gal
  glycan array binding signal (z-score): -0.753
[18]
  glycan array binding signal (z-score): 0.672
[19]
  glycan array binding signal (z-score): 1.53
[20]
  glycan array binding signal (z-score): -0.686
Gal(b1-3)GlcNAc
  glycan array binding signal (z-score): -0.163
[21]
  glycan array binding signal (z-score): -0.713
[22]
  glycan array binding signal (z-score): -0.933
Gal(b1-3)GlcNAc(b1-2)Man
  glycan array binding signal (z-score): 1.29
